Measured values taken from the supplement of paper PMC6411743.
± gives the standard deviation of the averaged measurements. The entries are a selection whose mix differs from that of the whole data set.

How the values were obtained:
Assay in all cases: NP40-soluble protein abundance relative to vehicle (solubility fold change) (ratio); higher = more soluble protein in presence of ATP
ANKMY2 = target: T1, ANKMY2 (UniProt Q8IV38)
T1 sequence (whole entry): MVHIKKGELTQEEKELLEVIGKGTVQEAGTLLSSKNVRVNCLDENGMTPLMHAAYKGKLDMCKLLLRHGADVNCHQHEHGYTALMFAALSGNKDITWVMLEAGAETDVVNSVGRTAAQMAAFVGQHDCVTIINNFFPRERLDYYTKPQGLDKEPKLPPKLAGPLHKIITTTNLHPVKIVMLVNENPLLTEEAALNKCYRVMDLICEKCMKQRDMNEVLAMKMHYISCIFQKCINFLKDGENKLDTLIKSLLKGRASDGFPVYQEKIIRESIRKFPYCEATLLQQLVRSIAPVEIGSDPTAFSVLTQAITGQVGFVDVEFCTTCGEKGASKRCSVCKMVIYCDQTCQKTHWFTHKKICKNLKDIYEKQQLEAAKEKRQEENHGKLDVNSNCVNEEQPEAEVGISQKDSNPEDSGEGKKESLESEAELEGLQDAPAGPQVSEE
How it was run: (§1)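 In three independent experiments, Jurkat crude lysate made by Dounce homogenisation was treated for 10 min at room temperature and then 3 min at 37 °C with eight concentrations ranging from 0.1 to 10 mM. It was then solubilised with 0.8% NP40 plus benzonase for 60 min at 4 °C and ultracentrifuged. The supernatant was TMT-labelled for LC-MS/MS, and each value is the fold change against the detergent-processed vehicle for the same replicate, using vsn-normalised intensities.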

ENOSF1 = target: T2, ENOSF1 (UniProt Q7L5Y1)
T2 sequence (whole entry): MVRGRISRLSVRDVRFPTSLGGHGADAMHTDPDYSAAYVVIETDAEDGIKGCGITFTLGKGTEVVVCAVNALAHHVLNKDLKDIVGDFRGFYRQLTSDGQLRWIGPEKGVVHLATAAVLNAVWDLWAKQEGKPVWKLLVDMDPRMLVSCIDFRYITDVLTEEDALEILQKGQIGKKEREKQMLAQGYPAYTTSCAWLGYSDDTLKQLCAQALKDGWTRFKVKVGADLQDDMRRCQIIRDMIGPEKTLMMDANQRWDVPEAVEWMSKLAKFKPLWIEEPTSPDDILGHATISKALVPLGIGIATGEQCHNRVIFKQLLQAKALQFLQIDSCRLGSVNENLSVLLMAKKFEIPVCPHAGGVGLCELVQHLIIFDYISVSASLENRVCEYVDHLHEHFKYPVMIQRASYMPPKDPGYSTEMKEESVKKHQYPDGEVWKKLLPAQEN
How it was run: as §1

ISCA2 = target: T3, ISCA2 (UniProt Q86U28)
T3 sequence (whole entry): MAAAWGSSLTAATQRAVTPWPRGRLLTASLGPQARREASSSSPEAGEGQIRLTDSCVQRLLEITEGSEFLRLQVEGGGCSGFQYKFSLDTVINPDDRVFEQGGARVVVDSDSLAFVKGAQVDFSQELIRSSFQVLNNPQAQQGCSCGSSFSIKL
How it was run: as §1

NUFIP2 = target: T4, NUFIP2 (UniProt Q7Z417)
T4 sequence (whole entry): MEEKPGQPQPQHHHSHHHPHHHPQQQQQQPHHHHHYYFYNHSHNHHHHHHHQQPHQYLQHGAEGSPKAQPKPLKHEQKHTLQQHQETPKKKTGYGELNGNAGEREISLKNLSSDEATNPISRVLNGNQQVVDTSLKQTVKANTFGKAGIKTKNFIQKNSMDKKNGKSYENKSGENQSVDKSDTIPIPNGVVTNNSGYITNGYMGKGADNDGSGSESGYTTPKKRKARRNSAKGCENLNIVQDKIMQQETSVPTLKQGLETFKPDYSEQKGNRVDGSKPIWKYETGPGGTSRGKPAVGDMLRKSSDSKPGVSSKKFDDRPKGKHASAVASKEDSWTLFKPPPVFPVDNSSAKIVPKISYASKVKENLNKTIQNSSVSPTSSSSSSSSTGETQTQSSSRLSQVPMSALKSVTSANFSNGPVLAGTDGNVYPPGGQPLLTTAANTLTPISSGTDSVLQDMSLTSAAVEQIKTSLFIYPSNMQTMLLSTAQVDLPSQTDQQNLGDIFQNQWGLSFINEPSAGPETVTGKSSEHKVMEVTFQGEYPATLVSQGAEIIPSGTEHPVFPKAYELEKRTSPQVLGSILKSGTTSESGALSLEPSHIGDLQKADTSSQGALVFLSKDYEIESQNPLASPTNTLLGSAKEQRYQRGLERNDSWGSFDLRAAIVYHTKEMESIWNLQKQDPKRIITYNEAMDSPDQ
How it was run: as §1

PLD3 = target: T5, PLD3 (UniProt Q8IV08)
T5 sequence (whole entry): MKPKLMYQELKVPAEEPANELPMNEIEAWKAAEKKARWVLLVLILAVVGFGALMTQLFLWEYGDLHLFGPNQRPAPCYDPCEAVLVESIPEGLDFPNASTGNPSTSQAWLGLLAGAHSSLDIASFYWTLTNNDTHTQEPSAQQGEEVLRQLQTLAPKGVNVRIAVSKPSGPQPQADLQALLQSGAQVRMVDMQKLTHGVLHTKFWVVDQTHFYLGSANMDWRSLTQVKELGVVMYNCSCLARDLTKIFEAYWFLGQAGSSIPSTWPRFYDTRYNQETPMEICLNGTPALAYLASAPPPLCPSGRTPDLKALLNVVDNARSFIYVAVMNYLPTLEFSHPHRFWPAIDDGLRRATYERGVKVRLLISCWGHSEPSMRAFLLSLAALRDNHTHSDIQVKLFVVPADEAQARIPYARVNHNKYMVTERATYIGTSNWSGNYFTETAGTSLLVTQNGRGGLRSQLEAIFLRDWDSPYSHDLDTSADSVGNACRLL
How it was run: as §1

## Nc1ncnc2c1ncn2[C@@H]1O[C@H](COP(=O)(O)OP(=O)(O)OP(=O)(O)O)[C@@H](O)[C@H]1O [adenosine triphosphate]
ANKMY2; concentration: 1mM
  NP40-soluble protein abundance: 0.95 ± 0.0076
ANKMY2; concentration: 2mM
  NP40-soluble protein abundance: 0.97 ± 0.021
ANKMY2; concentration: 4mM
  NP40-soluble protein abundance: 0.928 ± 0.034
ANKMY2; concentration: 6mM
  NP40-soluble protein abundance: 0.951 ± 0.024
ANKMY2; concentration: 8mM
  NP40-soluble protein abundance: 0.935 ± 0.044
ANKMY2; concentration: 10mM
  NP40-soluble protein abundance: 0.945 ± 0.035
ENOSF1; concentration: 1mM
  NP40-soluble protein abundance: 1.02 ± 0.066
ENOSF1; concentration: 2mM
  NP40-soluble protein abundance: 1.03 ± 0.038
ENOSF1; concentration: 4mM
  NP40-soluble protein abundance: 1.01 ± 0.06
ENOSF1; concentration: 6mM
  NP40-soluble protein abundance: 0.967 ± 0.069
ENOSF1; concentration: 8mM
  NP40-soluble protein abundance: 1.02 ± 0.02
ENOSF1; concentration: 10mM
  NP40-soluble protein abundance: 1.02 ± 0.028
ISCA2; concentration: 1mM
  NP40-soluble protein abundance: 0.986 ± 0.032
ISCA2; concentration: 2mM
  NP40-soluble protein abundance: 0.972 ± 0.033
ISCA2; concentration: 4mM
  NP40-soluble protein abundance: 0.997 ± 0.081
ISCA2; concentration: 6mM
  NP40-soluble protein abundance: 0.967 ± 0.058
ISCA2; concentration: 8mM
  NP40-soluble protein abundance: 0.946 ± 0.063
ISCA2; concentration: 10mM
  NP40-soluble protein abundance: 0.983 ± 0.065
NUFIP2; concentration: 1mM
  NP40-soluble protein abundance: 1.06 ± 0.096
NUFIP2; concentration: 2mM
  NP40-soluble protein abundance: 1.14 ± 0.09
NUFIP2; concentration: 4mM
  NP40-soluble protein abundance: 1.22 ± 0.084
NUFIP2; concentration: 6mM
  NP40-soluble protein abundance: 1.43 ± 0.11
NUFIP2; concentration: 8mM
  NP40-soluble protein abundance: 1.39 ± 0.1
NUFIP2; concentration: 10mM
  NP40-soluble protein abundance: 1.52 ± 0.093
PLD3; concentration: 1mM
  NP40-soluble protein abundance: 0.914 ± 0.019
PLD3; concentration: 2mM
  NP40-soluble protein abundance: 0.951 ± 0.11
PLD3; concentration: 4mM
  NP40-soluble protein abundance: 0.916 ± 0.067
PLD3; concentration: 6mM
  NP40-soluble protein abundance: 0.906 ± 0.067
PLD3; concentration: 8mM
  NP40-soluble protein abundance: 0.863 ± 0.044
PLD3; concentration: 10mM
  NP40-soluble protein abundance: 0.924 ± 0.046
